This note sets out measurements from PMC10913371.

These are yes or no findings as the source states them, for the method shown.

In the test the target is Clostridioides difficile translation initiation factor 1 (Clostridioides difficile) (UniProt Q18CI2). The test is described as follows: 15N NMR relaxation (R1 and R2); rotational correlation time of ~6 ns and molecular weight of ~10 kDa; NMR solution conditions; both purified.

B1: Clostridioides difficile translation initiation factor 1 (protein, UniProt Q18CI2 1-72)
chain: MASMAKKDVIELEGTVSEALPNAMFKVKLENGHEILCHISGKLRMNFIRILEGDKVNVELSPYDLTRGRITWRKK
For B1, the binding result is recorded as “no binding”.
